Data source: PubChem BioAssay AID1259425 (University of Nebraska Medical Center, 2018)
Shown is a random part of about 14,000 reagents tested. Reagent sequences are not shown. The record does not give: the time to read-out.

Purpose: 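Seek colon cancer weak points whose silencing resembles KSR1 loss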 (primary screen)
System: HCT116 human colon cancer cells
Reagent: siRNA pool against human genes, 50 nM siRNA
Measurement: 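mRNA of six signature genes measured together by branched-DNA assay after 50 nM siRNA pool, blank removed, divided by geometric mean of two housekeeping genes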
Direction: BNIP3L mRNA: higher = more BNIP3L transcript after knockdown; NDRG1 mRNA: higher = more NDRG1 transcript after knockdown; BNIP3 mRNA: higher = more BNIP3 transcript after knockdown; ALDOC mRNA: higher = more ALDOC transcript after knockdown; ACSL5 mRNA: higher = more ACSL5 transcript after knockdown

| gene | BNIP3L mRNA, set 1 | NDRG1 mRNA, set 1 | BNIP3 mRNA, set 1 | ALDOC mRNA, set 1 | ACSL5 mRNA, set 1 |
| --- | --- | --- | --- | --- | --- |
| POGLUT1 | 0.264 | 1.53 | 0.621 | 0.0916 | 0.457 |
| PARK7 | 0.273 | 0.33 | 0.501 | 0.0855 | 0.232 |
| EGLN1 | 0.266 | 0.114 | 0.959 | 0.0528 | 0.124 |
| KIAA0040 | 0.085 | 0.114 | 0.286 | 0.0334 | 0.274 |
| TK1 | 0.0517 | 0.0927 | 0.405 | 0.00872 | 0.318 |
| TBC1D12 | 0.515 | 0.276 | 0.571 | 0.0466 | 0.16 |
| VRK2 | 0.059 | 0.0514 | 0.208 | 0.0205 | 0.169 |
| SLC15A2 | 0.0944 | 0.113 | 0.188 | 0.0194 | 0.148 |
| RPL36AL | 0.311 | 0.505 | 1.04 | 0.067 | 0.654 |
| GCLM | 0.0557 | 0.119 | 0.245 | 0.0217 | 0.0826 |
| ZC3H4 | 0.183 | 0.594 | 0.235 | 0.00981 | 0.366 |
| NEIL3 | 0.083 | 0.116 | 0.279 | 0.02 | 0.12 |
| SPA17 | 0.094 | 0.292 | 0.369 | 0.0339 | 0.158 |
| SAP18 | 0.113 | 0.147 | 0.351 | 0.0103 | 0.224 |
| TPRXL | 0.247 | 0.0767 | 0.432 | 0.0109 | 0.132 |
| SLC16A8 | 0.0578 | 0.373 | 0.293 | 0.0592 | 0.12 |
| PGBD1 | 0.0739 | 0.369 | 0.286 | 0.0317 | 0.205 |
| IL26 | 0.0881 | 0.0814 | 0.198 | 0.0343 | 0.0873 |
| FRMPD3 | 0.166 | 0.158 | 0.241 | 0.0353 | 0.0998 |
| SYNGR2 | 0.0955 | 0.237 | 0.251 | 0.0244 | 0.24 |
| SDC1 | 0.398 | 0.16 | 0.299 | 0.0778 | 0.165 |
| ASAP1 | 0.192 | 0.473 | 0.378 | 0.0306 | 0.342 |
| KLK1 | 0.0998 | 0.15 | 0.266 | 0.0114 | 0.134 |
| INTS3 | 0.199 | 0.158 | 0.465 | 0.0401 | 0.206 |
| EDEM2 | 0.083 | 0.267 | 0.206 | 0.0186 | 0.11 |
| TMOD2 | 0.0941 | 0.119 | 0.29 | 0.0202 | 0.159 |
| MRGPRX4 | 0.0988 | 0.103 | 0.262 | 0.0426 | 0.242 |
| RNLS | 0.199 | 0.515 | 0.509 | 0.0198 | 0.326 |
| SNTG2 | 0.141 | 0.267 | 0.264 | 0.00832 | 0.127 |
| ZNF200 | 0.0863 | 0.0445 | 0.271 | 0.018 | 0.142 |
| SSBP3 | 0.15 | 0.384 | 0.59 | 0.0289 | 0.355 |
| GPR45 | 0.142 | 0.341 | 0.359 | 0.0562 | 0.252 |
| PKIB | 0.289 | 0.141 | 0.809 | 0.0591 | 0.55 |
| POLE4 | 0.0821 | 0.246 | 0.176 | 0.0416 | 0.184 |
| SSBP2 | 0.121 | 0.148 | 0.445 | 0.0527 | 0.191 |
| MYCLP1 | 0.128 | 0.284 | 0.225 | 0.0188 | 0.126 |
| GGA1 | 0.107 | 0.678 | 0.55 | 0.0633 | 0.169 |
| DHX35 | 0.248 | 0.239 | 0.646 | 0.0828 | 0.391 |
| THOP1 | 0.0992 | 0.776 | 0.424 | 0.0753 | 0.306 |
| PPP3CB | 0.026 | 0.0828 | 0.204 | 0.0284 | 0.0998 |
| PEBP1 | 0.0946 | 0.0767 | 0.225 | 0.0204 | 0.0776 |
| CHORDC1 | 0.0876 | 0.228 | 0.312 | 0.0328 | 0.0846 |
| KRTAP3-1 | 0.321 | 0.561 | 0.395 | 0.105 | 0.531 |
| ABHD8 | 0.109 | 0.175 | 0.334 | 0.012 | 0.106 |
| NCKAP5L | 0.141 | 1.19 | 0.173 | 0.0786 | 0.129 |
| FAIM | 0.155 | 0.134 | 0.479 | 0.0303 | 0.093 |
| GRIA4 | 0.0999 | 0.123 | 0.261 | 0.00898 | 0.071 |
| HOXA1 | 0.209 | 0.465 | 0.208 | 0.00201 | 0.205 |
| SSX5 | 0.129 | 0.413 | 0.303 | 0.0309 | 0.242 |
| SLC35B3 | 0.124 | 0.0467 | 0.217 | 0.0393 | 0.111 |

8 entries from above in another layout.
SYNGR2 — BNIP3L mRNA, set 1 = 0.0955; NDRG1 mRNA, set 1 = 0.237; BNIP3 mRNA, set 1 = 0.251; ALDOC mRNA, set 1 = 0.0244; ACSL5 mRNA, set 1 = 0.24
SDC1 — BNIP3L mRNA, set 1 = 0.398; NDRG1 mRNA, set 1 = 0.16; BNIP3 mRNA, set 1 = 0.299; ALDOC mRNA, set 1 = 0.0778; ACSL5 mRNA, set 1 = 0.165
ASAP1 — BNIP3L mRNA, set 1 = 0.192; NDRG1 mRNA, set 1 = 0.473; BNIP3 mRNA, set 1 = 0.378; ALDOC mRNA, set 1 = 0.0306; ACSL5 mRNA, set 1 = 0.342
KLK1 — BNIP3L mRNA, set 1 = 0.0998; NDRG1 mRNA, set 1 = 0.15; BNIP3 mRNA, set 1 = 0.266; ALDOC mRNA, set 1 = 0.0114; ACSL5 mRNA, set 1 = 0.134
INTS3 — BNIP3L mRNA, set 1 = 0.199; NDRG1 mRNA, set 1 = 0.158; BNIP3 mRNA, set 1 = 0.465; ALDOC mRNA, set 1 = 0.0401; ACSL5 mRNA, set 1 = 0.206
EDEM2 — BNIP3L mRNA, set 1 = 0.083; NDRG1 mRNA, set 1 = 0.267; BNIP3 mRNA, set 1 = 0.206; ALDOC mRNA, set 1 = 0.0186; ACSL5 mRNA, set 1 = 0.11
TMOD2 — BNIP3L mRNA, set 1 = 0.0941; NDRG1 mRNA, set 1 = 0.119; BNIP3 mRNA, set 1 = 0.29; ALDOC mRNA, set 1 = 0.0202; ACSL5 mRNA, set 1 = 0.159
MRGPRX4 — BNIP3L mRNA, set 1 = 0.0988; NDRG1 mRNA, set 1 = 0.103; BNIP3 mRNA, set 1 = 0.262; ALDOC mRNA, set 1 = 0.0426; ACSL5 mRNA, set 1 = 0.242
